Results deposited as PubChem BioAssay AID1259308 (NCATS, 2017)
In all, the deposit lists about 59,000 reagents; below is a random part of them. About 1,510 of all reagents (2.6%) count as active. 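Calls use total luciferase alone and ignore viability, so some active siRNAs may act by altering cell number.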 The numbers tell different reagents against one gene apart. Further read-outs or replicates are left out here.

- Screen: 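Genes whose loss raises luciferase production in HEK293 cells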 (primary screen)
- System: human HEK293 embryonic kidney cells stably expressing firefly luciferase (HEK-CMV-Luc2-Hygro)
- Reagents: single siRNA against human genes, 0.8 pmol siRNA per well
- Time to read-out: 72 h
- Measurement: 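Luciferase light (ONE-Glo) measured on one replicate plate set and viability (CellTiter-Glo) on the other, scaled to a negative control siRNA, with robust z-scores and luciferase per cell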
- Scale: total luciferase, z-score: higher = more reporter protein produced
- Call rule: 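An siRNA counts as active if its total luciferase robust z-score exceeds 3; genes with two or more such siRNAs out of three were retested with fresh siRNAs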
- Calls: active = raised luciferase; inactive = no rise

OR11H1 (olfactory receptor family 11 subfamily H member 1) #1 — total luciferase, z-score = 0.457; call = inactive
OR11H1 (olfactory receptor family 11 subfamily H member 1) #2 — total luciferase, z-score = 0.726; call = inactive
OR11H1 (olfactory receptor family 11 subfamily H member 1) #3 — total luciferase, z-score = -0.126; call = inactive
GAS1 (growth arrest specific 1) #1 — total luciferase, z-score = 0.131; call = inactive
GAS1 (growth arrest specific 1) #2 — total luciferase, z-score = 0.36; call = inactive
GAS1 (growth arrest specific 1) #3 — total luciferase, z-score = -0.887; call = inactive
PDXDC1 (pyridoxal dependent decarboxylase domain containing 1) #1 — total luciferase, z-score = -0.304; call = inactive
PDXDC1 (pyridoxal dependent decarboxylase domain containing 1) #2 — total luciferase, z-score = -1.05; call = inactive
PDXDC1 (pyridoxal dependent decarboxylase domain containing 1) #3 — total luciferase, z-score = -0.762; call = inactive
HELQ (helicase, POLQ like) #1 — total luciferase, z-score = 0.203; call = inactive
HELQ (helicase, POLQ like) #2 — total luciferase, z-score = 0.612; call = inactive
HELQ (helicase, POLQ like) #3 — total luciferase, z-score = -1.94; call = inactive
